US20100323906
For some of these results: A negative result means that nothing was seen under these conditions. For some of these results: Protein sequences can lack the tags named with them. For some of these results: For at least one entry, the source does not settle the construct or the ends of the probe.

How the values were obtained:
Assay in all cases: enzyme reaction in vitro
Bal31 exonuclease = conditions: 5'-dithiol on upper strand, tethered to 20 nm Au nanoparticle; about 90% of 54 bp digested in 20 min; 100 nM Bal31; 10 mM MgCl2; purified native protein; protein details: Clontech
Exo-1 (exonuclease I) = biological target: T1, Exo-1 (exonuclease I) (UniProt P04995); conditions: 5'-dithiol on upper strand, tethered to 20 nm Au nanoparticle; control exonuclease, no effect on ruler spectra (no dsDNA cleavage); purified recombinant …
T1 sequence (looked up, limits assumed): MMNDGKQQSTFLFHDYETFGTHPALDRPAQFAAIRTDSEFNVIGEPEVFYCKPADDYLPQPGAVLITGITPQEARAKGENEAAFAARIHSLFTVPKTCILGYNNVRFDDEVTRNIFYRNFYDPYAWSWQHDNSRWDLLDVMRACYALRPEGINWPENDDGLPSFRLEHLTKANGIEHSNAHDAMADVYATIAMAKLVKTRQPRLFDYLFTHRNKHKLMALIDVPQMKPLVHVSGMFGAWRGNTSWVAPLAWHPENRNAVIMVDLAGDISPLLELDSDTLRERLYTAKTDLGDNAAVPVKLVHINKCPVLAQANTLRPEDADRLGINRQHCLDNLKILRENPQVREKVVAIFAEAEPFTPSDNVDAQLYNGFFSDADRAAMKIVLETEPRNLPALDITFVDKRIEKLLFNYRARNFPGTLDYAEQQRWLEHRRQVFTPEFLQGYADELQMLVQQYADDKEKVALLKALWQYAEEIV

SalI = biological target: T2, SalI (UniProt Q53608); conditions: 5'-dithiol on upper strand, tethered to 20 nm Au nanoparticle; removes 18 bp from distal end; 3.5 nM enzyme; purified recombinant protein; protein details: New England Biolabs; label: FITC on 5' of lower strand
T2 sequence (looked up, limits assumed): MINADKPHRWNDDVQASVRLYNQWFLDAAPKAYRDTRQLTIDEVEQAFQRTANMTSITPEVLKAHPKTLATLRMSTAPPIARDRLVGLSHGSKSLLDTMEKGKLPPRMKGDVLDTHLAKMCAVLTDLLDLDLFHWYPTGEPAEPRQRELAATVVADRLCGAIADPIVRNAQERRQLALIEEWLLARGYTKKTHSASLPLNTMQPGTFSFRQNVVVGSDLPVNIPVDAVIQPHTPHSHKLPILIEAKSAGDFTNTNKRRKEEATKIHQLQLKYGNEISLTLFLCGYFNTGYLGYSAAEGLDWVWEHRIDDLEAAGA

KpnI = biological target: T3, KpnI (UniProt P25237); conditions: 5'-dithiol on upper strand, tethered to 20 nm Au nanoparticle; removes 6 bp from distal end; 3.5 nM enzyme; purified recombinant protein; protein details: New England Biolabs; label: FITC on 5' of lower strand
T3 sequence (looked up, limits assumed): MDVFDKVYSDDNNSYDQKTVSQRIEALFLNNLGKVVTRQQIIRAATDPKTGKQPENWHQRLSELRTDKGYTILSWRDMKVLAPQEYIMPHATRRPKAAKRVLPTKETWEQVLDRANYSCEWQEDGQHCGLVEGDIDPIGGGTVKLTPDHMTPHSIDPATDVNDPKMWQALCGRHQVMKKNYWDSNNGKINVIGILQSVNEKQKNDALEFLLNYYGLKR

Sequence | activity on this sequence (Bal31 exonuclease) | activity on this sequence (Exo-1 (exonuclease I)) | activity on this sequence (SalI) | activity on this sequence (KpnI)
AAAGGATCCAAGCTTGAATTCCTCGAGAGATCTGTCGACGATATCGGTACCAAA (double strand) [54-bp ruler dsDNA without FITC] | active | not active | – | –
AAAGGATCCAAGCTTGAATTCCTCGAGAGATCTGTCGACGATATCGGTACCAAA (double strand) [54-bp ruler dsDNA] | – | – | active | active
